Results are given in words; binding and its absence hold for the method and conditions named. Binding seen in cells or lysates may run through a third protein. Some results given as binding are weak or reduced against the parent protein; the word gives no strength.
Tests used:
[1] = biological target: CDK4 (human (endogenous in H358-PR250)) (UniProt P11802); experiment: condition: only cells treated with 100 nM PD0325901 for 24 hours; co-IP; endogenous proteins in lysates of H358-PR250 cells treated with 100 nM PD0325901 for 24 hours; Western blot
[2] = biological target: CDK6 (human (endogenous in H358-PR250)) (UniProt Q00534); experiment: co-IP; endogenous proteins in lysates of H358-PR250 cells (for CDK7 also parental H358 cells) treated with vehicle or 100 nM PD0325901 for 24 hours; Western blot
[3] = biological target: CDK7 (human (endogenous in H358 and H358-PR250)) (UniProt P50613); experiment: as above
[4] = biological target: CDK4 (human (endogenous in H358-PR250)) (UniProt P11802); experiment: as above

By UniProt entry, the sequences of proteins in these tests, tags left out.
UniProt P11802: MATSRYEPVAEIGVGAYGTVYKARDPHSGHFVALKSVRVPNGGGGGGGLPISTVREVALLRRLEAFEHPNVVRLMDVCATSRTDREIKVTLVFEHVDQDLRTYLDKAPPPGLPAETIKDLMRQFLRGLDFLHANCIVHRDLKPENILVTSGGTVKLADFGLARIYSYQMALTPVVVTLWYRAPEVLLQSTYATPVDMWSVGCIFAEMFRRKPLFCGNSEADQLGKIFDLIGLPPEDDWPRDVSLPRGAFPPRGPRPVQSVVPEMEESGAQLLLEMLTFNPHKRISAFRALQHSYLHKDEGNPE
UniProt Q00534: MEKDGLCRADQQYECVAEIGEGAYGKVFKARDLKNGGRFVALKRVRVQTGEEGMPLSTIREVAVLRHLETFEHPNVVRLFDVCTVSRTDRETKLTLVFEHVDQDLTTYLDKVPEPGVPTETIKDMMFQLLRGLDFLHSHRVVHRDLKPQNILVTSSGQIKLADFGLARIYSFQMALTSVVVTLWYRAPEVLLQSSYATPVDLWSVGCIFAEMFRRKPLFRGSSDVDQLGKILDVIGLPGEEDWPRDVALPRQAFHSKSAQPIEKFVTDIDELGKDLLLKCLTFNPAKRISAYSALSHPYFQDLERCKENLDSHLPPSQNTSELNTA
UniProt P50613: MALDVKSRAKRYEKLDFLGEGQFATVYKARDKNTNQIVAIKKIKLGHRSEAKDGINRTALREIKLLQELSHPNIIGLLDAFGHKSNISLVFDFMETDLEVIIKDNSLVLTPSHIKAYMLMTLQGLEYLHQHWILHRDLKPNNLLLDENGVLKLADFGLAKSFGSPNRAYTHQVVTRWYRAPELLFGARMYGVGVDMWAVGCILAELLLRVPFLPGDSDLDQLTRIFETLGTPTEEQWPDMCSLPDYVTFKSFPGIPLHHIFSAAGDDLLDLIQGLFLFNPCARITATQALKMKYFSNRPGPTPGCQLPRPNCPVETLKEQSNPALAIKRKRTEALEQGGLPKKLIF
UniProt P46527: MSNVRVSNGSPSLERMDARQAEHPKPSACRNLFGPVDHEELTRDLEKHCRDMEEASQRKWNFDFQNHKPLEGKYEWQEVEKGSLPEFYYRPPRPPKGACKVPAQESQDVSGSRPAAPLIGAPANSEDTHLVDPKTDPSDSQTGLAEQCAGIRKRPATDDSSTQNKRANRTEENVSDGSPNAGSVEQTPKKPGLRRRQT

Which binding [1] does the source give for p27^Kip1 (from UniProt P46527 1-198) here?
The binding was “no binding”.

And the binding [2]?
The binding was “binds”.

What about the binding [3] of the same substance?
The binding was “binds”.

And the binding [4]?
The binding was “binds”.
